Reference: paper PMC3156230
No constants are given. Whether binding was seen depends on the method and setting. Binding seen in cells or lysates may run through a third protein. Some entries that bind do so weakly or less than the wild type.

T1: LASP-1 (UniProt Q14847)
T1 sequence: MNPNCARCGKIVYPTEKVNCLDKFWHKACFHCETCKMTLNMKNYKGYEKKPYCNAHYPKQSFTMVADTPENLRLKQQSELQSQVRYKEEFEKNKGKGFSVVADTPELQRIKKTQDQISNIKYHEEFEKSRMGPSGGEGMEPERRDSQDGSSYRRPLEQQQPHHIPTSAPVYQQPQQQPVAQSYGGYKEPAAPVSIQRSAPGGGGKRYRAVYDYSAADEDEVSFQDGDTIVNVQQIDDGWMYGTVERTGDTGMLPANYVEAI

T2: human nephrin (human) (UniProt O60500)
T2 sequence: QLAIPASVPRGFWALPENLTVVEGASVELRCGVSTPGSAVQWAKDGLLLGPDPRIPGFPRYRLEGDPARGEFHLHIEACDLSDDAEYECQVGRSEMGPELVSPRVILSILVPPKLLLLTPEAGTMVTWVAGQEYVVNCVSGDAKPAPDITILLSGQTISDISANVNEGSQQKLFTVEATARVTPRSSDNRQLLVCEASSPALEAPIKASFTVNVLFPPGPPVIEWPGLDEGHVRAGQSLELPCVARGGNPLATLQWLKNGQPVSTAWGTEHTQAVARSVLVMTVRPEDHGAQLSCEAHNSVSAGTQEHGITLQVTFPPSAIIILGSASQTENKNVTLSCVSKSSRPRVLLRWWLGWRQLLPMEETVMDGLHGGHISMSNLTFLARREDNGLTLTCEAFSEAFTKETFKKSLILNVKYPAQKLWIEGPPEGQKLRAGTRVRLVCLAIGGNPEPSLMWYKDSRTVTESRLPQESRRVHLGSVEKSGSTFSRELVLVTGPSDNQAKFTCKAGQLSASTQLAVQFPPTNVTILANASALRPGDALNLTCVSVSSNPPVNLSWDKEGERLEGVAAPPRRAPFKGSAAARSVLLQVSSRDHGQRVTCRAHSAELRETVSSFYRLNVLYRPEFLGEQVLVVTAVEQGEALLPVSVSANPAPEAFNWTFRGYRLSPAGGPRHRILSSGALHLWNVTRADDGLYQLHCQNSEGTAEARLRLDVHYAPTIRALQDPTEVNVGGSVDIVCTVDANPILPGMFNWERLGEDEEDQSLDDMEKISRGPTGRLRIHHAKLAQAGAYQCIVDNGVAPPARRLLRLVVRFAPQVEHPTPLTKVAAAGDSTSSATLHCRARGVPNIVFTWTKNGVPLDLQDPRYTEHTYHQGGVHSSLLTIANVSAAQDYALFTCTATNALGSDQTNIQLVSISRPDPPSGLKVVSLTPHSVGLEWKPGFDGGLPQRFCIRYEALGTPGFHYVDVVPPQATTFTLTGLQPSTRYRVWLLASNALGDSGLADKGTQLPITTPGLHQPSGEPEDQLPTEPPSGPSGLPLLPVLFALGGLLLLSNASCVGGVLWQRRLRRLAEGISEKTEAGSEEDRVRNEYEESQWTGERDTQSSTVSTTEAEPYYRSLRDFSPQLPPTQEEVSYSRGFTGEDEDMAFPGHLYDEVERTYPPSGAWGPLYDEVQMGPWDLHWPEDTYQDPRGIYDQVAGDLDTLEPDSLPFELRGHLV

T3: C. elegans SYG-2 (C. elegans) (UniProt Q9U3P2)
T3 sequence: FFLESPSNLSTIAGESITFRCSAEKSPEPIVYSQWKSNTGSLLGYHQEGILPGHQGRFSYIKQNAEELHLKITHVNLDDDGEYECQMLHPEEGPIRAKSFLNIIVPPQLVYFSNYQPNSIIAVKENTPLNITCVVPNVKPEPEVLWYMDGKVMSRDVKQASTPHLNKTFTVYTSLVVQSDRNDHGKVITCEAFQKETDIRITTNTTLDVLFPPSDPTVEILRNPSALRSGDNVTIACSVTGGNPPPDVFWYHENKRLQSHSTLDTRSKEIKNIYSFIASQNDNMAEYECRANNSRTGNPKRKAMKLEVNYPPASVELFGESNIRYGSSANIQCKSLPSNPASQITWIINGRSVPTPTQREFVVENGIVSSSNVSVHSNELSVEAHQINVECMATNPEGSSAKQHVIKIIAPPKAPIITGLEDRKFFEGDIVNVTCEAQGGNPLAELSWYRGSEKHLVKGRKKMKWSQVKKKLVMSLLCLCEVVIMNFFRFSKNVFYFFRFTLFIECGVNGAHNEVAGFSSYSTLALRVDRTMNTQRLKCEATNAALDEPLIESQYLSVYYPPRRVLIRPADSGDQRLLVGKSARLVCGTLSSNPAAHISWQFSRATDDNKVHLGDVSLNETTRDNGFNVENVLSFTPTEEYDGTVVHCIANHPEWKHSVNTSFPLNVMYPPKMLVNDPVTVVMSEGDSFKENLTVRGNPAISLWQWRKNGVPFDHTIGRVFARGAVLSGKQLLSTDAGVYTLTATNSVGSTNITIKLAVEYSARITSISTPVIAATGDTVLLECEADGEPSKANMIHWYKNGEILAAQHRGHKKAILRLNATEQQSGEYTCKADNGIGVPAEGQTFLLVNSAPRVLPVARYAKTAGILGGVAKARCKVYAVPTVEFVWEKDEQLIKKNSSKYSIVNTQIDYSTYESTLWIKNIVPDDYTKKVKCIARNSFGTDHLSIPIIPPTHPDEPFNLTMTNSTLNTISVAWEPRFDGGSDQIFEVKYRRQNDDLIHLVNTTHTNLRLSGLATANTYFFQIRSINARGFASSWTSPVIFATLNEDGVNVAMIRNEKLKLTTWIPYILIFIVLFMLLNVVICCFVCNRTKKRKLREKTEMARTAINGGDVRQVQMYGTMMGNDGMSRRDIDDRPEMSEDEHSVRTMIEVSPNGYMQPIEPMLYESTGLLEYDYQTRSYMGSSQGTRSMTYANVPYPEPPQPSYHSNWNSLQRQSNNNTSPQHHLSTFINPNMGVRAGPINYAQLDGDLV

B1: C. elegans SYG-1 (receptor, UniProt B1Q236 19-730)
chain: QQLQQRIVEAPKDTLAAVGETAILTCRVEHQQGPVQWMKDDFGLGTDRDKPLPGNKRYRMVGSAANGEYNLEISNVTLFDDDDFACQISESDHAKAVVSSKAKLTVLVRPTPPKIVKSHHSLKAIAGDPITQSCLSRKGKPPPTIGWAIASDEHGKHIVSWLGESRSKFGGIHAKPEISQETVIAHVNETTQVEEGGNNSREDSSIYSIMSNLSFIPRPEDDHKYLICISQHMTFPNKIEVDSVKLSLRYAPQINLTVASKLPLRENGSALLACNVNAKPLDNVKISWYKGNQKLRETGDTLTFETLKMEDHNRDIFCEATNEIGTTRGSIKLNVAFGARIMSTSQDKEVNEGDNAFFHCATLANPAPAIFWTRGDSDEIIGHGENLTLENVRTWQQGNYNCTATVEGFRKQILSHYLHIRGPPTVSMKDEVSASLDEATEIICEISGRPKTNNVRWTVNGKEINFNNGRITVHQYPKPYGKESILKIKDLKEEDFGVYNCSANNGLGFDNRGTLLKKRNILDWIVITAKFDRMVALAIISAGVLLVSLLCCLCMCRSNCRSRKSKFIDDQSDVTVKCEALDGQYFPEMYSSSPVDNVHLSTKDYISIPQNNPDLDFLGATGSFGPPGGLYPKCFNNSANEYIYNRYEHSYGSFGSGLSTPGGVSDMYGVAMSDKLPVMETLQEVETPKTSNYNFLSSPEVVRPISRTSTHV
B2: C. elegans SYG-2 (receptor, UniProt Q9U3P2 20-1270)
chain: T3 sequence

How the values were obtained:
Experiment in all cases: co-IP; V5-tagged and Flag-tagged proteins co-expressed in transiently transfected HEK 293T cells; lysis buffer with 1% Triton X-100; cleared lysate incubated 1-2 h with anti-Flag M2 beads, washed four times; Western blot with anti-V5
LASP-1 = biological target: T1, LASP-1
human nephrin (human) = biological target: T2, human nephrin (human)
[1] = biological target: T3, C. elegans SYG-2 (C. elegans)

binding (LASP-1)	binding (human nephrin (human))	binding [1]	Binder
no binding	binds		B1
		binds	B2
